Data as given in publication PMC9456343.

T1: OsDMC1A (rice) (UniProt Q7GBF8)
T1 sequence: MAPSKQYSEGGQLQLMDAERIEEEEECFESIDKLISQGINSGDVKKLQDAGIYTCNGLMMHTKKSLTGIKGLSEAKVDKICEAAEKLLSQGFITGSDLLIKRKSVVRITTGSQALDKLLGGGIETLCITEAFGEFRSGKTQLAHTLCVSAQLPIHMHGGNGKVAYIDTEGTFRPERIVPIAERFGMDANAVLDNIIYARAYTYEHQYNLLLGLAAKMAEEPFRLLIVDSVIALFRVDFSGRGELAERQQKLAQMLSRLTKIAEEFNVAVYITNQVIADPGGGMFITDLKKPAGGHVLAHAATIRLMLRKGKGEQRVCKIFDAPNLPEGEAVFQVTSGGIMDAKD

T2: OsDMC1B (rice) (UniProt Q7GBF7)
T2 sequence: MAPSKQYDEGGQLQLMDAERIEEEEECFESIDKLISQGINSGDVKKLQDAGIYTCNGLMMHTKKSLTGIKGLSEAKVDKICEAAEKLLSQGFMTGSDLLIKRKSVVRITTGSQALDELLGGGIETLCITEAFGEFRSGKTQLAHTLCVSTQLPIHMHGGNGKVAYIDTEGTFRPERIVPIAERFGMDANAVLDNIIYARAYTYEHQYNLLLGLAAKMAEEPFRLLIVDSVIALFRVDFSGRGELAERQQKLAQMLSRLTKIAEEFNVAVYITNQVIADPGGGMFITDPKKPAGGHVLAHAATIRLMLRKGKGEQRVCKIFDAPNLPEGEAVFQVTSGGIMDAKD


What was measured:
OsDMC1A (rice) [1] = biological target: T1, OsDMC1A (rice); assay: two-hybrid; pGBKT7 bait and pGADT7 prey in Y2H Gold yeast; selection on SD/-His-Ade-Trp-Leu medium containing X-alpha-Gal and AbA
OsDMC1B (rice) [2] = biological target: T2, OsDMC1B (rice); assay: as above
OsDMC1A (rice) [3] = biological target: T1, OsDMC1A (rice); assay: split reporter; BiFC with pSCYNE (SCN) and pSCYCE(R) (SCC) constructs in rice protoplasts; 28 °C in the dark for 18 h; CFP signals by confocal microscopy
OsDMC1B (rice) [4] = biological target: T2, OsDMC1B (rice); assay: as above
OsBRCA2 (rice) [5] = assay: two-hybrid; pGBKT7 bait and pGADT7 prey in Y2H Gold yeast; selection on SD/-His-Ade-Trp-Leu medium containing X-alpha-Gal and AbA
OsFIGL1 (rice) [6] = assay: as above
OsBRCA2 (rice) [7] = assay: split reporter; BiFC with pSCYNE (SCN) and pSCYCE(R) (SCC) constructs in rice protoplasts; 28 °C in the dark for 18 h; CFP signals by confocal microscopy
OsFIGL1 (rice) [8] = assay: as above

| Molecule | binding (OsDMC1A (rice) [1]) | binding (OsDMC1B (rice) [2]) | binding (OsDMC1A (rice) [3]) | binding (OsDMC1B (rice) [4]) | binding (OsBRCA2 (rice) [5]) | binding (OsFIGL1 (rice) [6]) | binding (OsBRCA2 (rice) [7]) | binding (OsFIGL1 (rice) [8]) |
| --- | --- | --- | --- | --- | --- | --- | --- | --- |
| OsRAD51A1 (rice) | no binding | no binding | no binding | no binding | – | – | – | – |
| OsRAD51A2 (rice) | no binding | no binding | no binding | no binding | – | – | – | – |

More lines, now with the values ahead:

| binding (OsDMC1A (rice) [1]) | binding (OsDMC1B (rice) [2]) | binding (OsDMC1A (rice) [3]) | binding (OsDMC1B (rice) [4]) | binding (OsBRCA2 (rice) [5]) | binding (OsFIGL1 (rice) [6]) | binding (OsBRCA2 (rice) [7]) | binding (OsFIGL1 (rice) [8]) | Molecule |
| --- | --- | --- | --- | --- | --- | --- | --- | --- |
| – | – | – | – | binds | binds | binds | binds | OsDMC1B (protein, UniProt Q7GBF7 1-344) MAPSKQYDEGGQLQLMDAERIEEEEECFESIDKLISQGINSGDVKKLQDAGIYTCNGLMMHTKKSLTGIKGLSEAKVDKICEAAEKLLSQGFMTGSDLLIKRKSVVRITTGSQALDELLGGGIETLCITEAFGEFRSGKTQLAHTLCVSTQLPIHMHGGNGKVAYIDTEGTFRPERIVPIAERFGMDANAVLDNIIYARAYTYEHQYNLLLGLAAKMAEEPFRLLIVDSVIALFRVDFSGRGELAERQQKLAQMLSRLTKIAEEFNVAVYITNQVIADPGGGMFITDPKKPAGGHVLAHAATIRLMLRKGKGEQRVCKIFDAPNLPEGEAVFQVTSGGIMDAKD |
| – | – | – | – | binds | binds | binds | binds | OsDMC1A (protein, UniProt Q7GBF8 1-344) MAPSKQYSEGGQLQLMDAERIEEEEECFESIDKLISQGINSGDVKKLQDAGIYTCNGLMMHTKKSLTGIKGLSEAKVDKICEAAEKLLSQGFITGSDLLIKRKSVVRITTGSQALDKLLGGGIETLCITEAFGEFRSGKTQLAHTLCVSAQLPIHMHGGNGKVAYIDTEGTFRPERIVPIAERFGMDANAVLDNIIYARAYTYEHQYNLLLGLAAKMAEEPFRLLIVDSVIALFRVDFSGRGELAERQQKLAQMLSRLTKIAEEFNVAVYITNQVIADPGGGMFITDLKKPAGGHVLAHAATIRLMLRKGKGEQRVCKIFDAPNLPEGEAVFQVTSGGIMDAKD |

These are yes or no findings as the source states them, for the method shown. For some of these results: A result given as binding can be weak or reduced; the word gives no strength. For some of these results: In cells and extracts the contact can be indirect.
